PubChem BioAssay AID1159584 – Peter MacCallum Cancer Centre | 2016
Aim: 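Genes that CDH1-null MCF10A cells selectively depend on to survive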 (primary screen). Cells: human MCF10A breast epithelial cells, parental and CDH1-null. Knock-down reagent: siRNA against human genes. Read-out: 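Cell viability by CellTiter-Glo ATP luminescence, each line scaled to the mean of mock wells across plates, then CDH1-null over parental ratio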. Direction: CDH1-null / parental viability ratio: higher = CDH1-null cells survive relatively better than parental; CDH1-null viability vs mock: higher = more viable CDH1-null cells; parental viability vs mock: higher = more viable parental cells.
The deposit covers about 18,000 reagents; shown is an unselected part. Not stated in the record: the amount of reagent, the time to read-out.

gene,CDH1-null / parental viability ratio,CDH1-null viability vs mock (fraction of mock),parental viability vs mock (fraction of mock)
CDH11 (GeneID 1009),1.13,1.04,0.92
SPIN3 (GeneID 169981),0.79,0.64,0.81
NAALAD2 (GeneID 10003),1.25,0.9,0.72
PSG5 (GeneID 5673),1.03,1.27,1.23
DMKN (GeneID 93099),1.03,0.33,0.32
IFNG (GeneID 3458),0.9,1.05,1.17
COX20 (GeneID 116228),1.29,0.88,0.68
ECEL1 (GeneID 9427),1.2,0.91,0.76
CBX6 (GeneID 23466),1.09,0.5,0.46
NDFIP2 (GeneID 54602),0.87,0.7,0.8
C19orf33 (GeneID 64073),1.29,0.62,0.48
SMDT1 (GeneID 91689),1.12,0.76,0.68
MEN1 (GeneID 4221),1,0.79,0.79
LCMT1 (GeneID 51451),0.98,0.86,0.88
OR5H1 (GeneID 26341),1.14,1.19,1.04
SOX2 (GeneID 6657),0.92,0.68,0.74

Reprinted from above, 2 entries:
gene,CDH1-null / parental viability ratio,CDH1-null viability vs mock (fraction of mock),parental viability vs mock (fraction of mock)
COX20 (GeneID 116228),1.29,0.88,0.68
ECEL1 (GeneID 9427),1.2,0.91,0.76

Further reagents follow:
gene,CDH1-null / parental viability ratio,CDH1-null viability vs mock (fraction of mock),parental viability vs mock (fraction of mock)
BAZ2A (GeneID 11176),1.15,0.84,0.73
EPHA7 (GeneID 2045),0.76,0.52,0.68
GOLGA8B (GeneID 440270),0.92,0.72,0.78
CATSPERD (GeneID 257062),0.97,0.6,0.62
TDRD7 (GeneID 23424),0.98,0.5,0.51
BPIFA2 (GeneID 140683),0.69,0.4,0.58
CTNNA2 (GeneID 1496),0.81,0.68,0.84
OR8B2 (GeneID 26595),1.04,0.87,0.84
PSMA4 (GeneID 5685),1.41,0.52,0.37
ZNF641 (GeneID 121274),0.81,0.56,0.69
DOK6 (GeneID 220164),1.15,0.98,0.85
COL1A2 (GeneID 1278),1.33,0.65,0.49
